Experimental data published in article PMC10451648 (Antibiotics, 2023).
Some peptides are written in HELM: one residue between dots, names in brackets for other building blocks, links after the first $.

experiment: general procedure: Fmoc solid-phase peptide synthesis; Rink Amide Pro Tide Resin (LL) (CEM), loading 0.2 mmol/g; DIC / Oxyma Pure; details: whole synthesis, analytical HPLC, InertSustainSwift C18, 0.1% TFA water/MeCN, 10-90% B over 30 min, scale of the general procedure 250 mg resin (loading: 0.2 mmol/g)

| Substance | final HPLC purity [%] |
| --- | --- |
| PEPTIDE1{G.I.K.K.F.L.K.S.[Aib].K.K.F.V.K.[Aib].F.K.[am]}$$$$V2.0 | 99.9 |
| PEPTIDE1{G.I.K.K.F.L.K.S.[XAibh1ed408].K.K.F.V.K.[XAibh1ed408].F.[XApih6328a3].[am]}$$$$V2.0 | 99.3 |
| PEPTIDE1{G.I.K.K.F.L.K.S.[XAibh1ed408].K.K.F.V.[XApih6328a3].[XAibh1ed408].F.K.[am]}$$$$V2.0 | 98.7 |
| PEPTIDE1{G.I.K.K.F.L.K.S.[XAibh1ed408].K.[XApih6328a3].F.V.K.[XAibh1ed408].F.K.[am]}$$$$V2.0 | 98.9 |
| PEPTIDE1{G.I.K.K.F.L.K.S.[XAibh1ed408].[XApih6328a3].K.F.V.K.[XAibh1ed408].F.K.[am]}$$$$V2.0 | 98.3 |
| PEPTIDE1{G.I.K.K.F.L.[XApih6328a3].S.[XAibh1ed408].K.K.F.V.K.[XAibh1ed408].F.K.[am]}$$$$V2.0 | 99.6 |
| PEPTIDE1{G.I.K.[XApih6328a3].F.L.K.S.[XAibh1ed408].K.K.F.V.K.[XAibh1ed408].F.K.[am]}$$$$V2.0 | 99.6 |
| PEPTIDE1{G.I.[XApih6328a3].K.F.L.K.S.[XAibh1ed408].K.K.F.V.K.[XAibh1ed408].F.K.[am]}$$$$V2.0 | 97.8 |
